From the supplement of paper PMC10077471
In all, about 1,900 compounds were measured (“excess over highest single agent (ExcessHSA) synergy score, 6x6 matrix”: median about -83, lowest 2% from about -370 on). Some of the results follow.

Each molecule was assayed on NCI-H446 (assay: excess over highest single agent (ExcessHSA) synergy score, 6x6 matrix; higher = less synergy (more negative = stronger synergy)). Conditions: 72 h; CellTiter-Glo viability.

Row | Compound | excess over highest single agent
1 | Cc1cn2c(-c3cn[nH]c3)cnc2c(Nc2ccc(C(=O)N3CCNCC3)cc2F)n1 + Cc1sc2c(c1C)C(c1ccc(Cl)cc1)=N[C@@H](CC(=O)OC(C)(C)C)c1nnc(C)n1-2 [NCGC00250412-19] | -31.9
2 | C[C@@H](N)[C@H]1CC[C@H](C(=O)Nc2ccncc2)CC1 + Cc1sc2c(c1C)C(c1ccc(Cl)cc1)=N[C@@H](CC(=O)OC(C)(C)C)c1nnc(C)n1-2 [NCGC00250412-19] | -66.1
3 | c1cnc2cc3c(cc2n1)[C@@H]1CNC[C@H]3C1 + Cc1sc2c(c1C)C(c1ccc(Cl)cc1)=N[C@@H](CC(=O)OC(C)(C)C)c1nnc(C)n1-2 [NCGC00250412-19] | -83.8
4 | CN1CC[C@H](c2c(O)cc(O)c3c(=O)cc(-c4ccccc4Cl)oc23)[C@H](O)C1 + Cc1sc2c(c1C)C(c1ccc(Cl)cc1)=N[C@@H](CC(=O)OC(C)(C)C)c1nnc(C)n1-2 [NCGC00250412-19] | -258
5 | Fc1ccc(C(OCCN2CCN(CCCc3ccccc3)CC2)c2ccc(F)cc2)cc1 + Cc1sc2c(c1C)C(c1ccc(Cl)cc1)=N[C@@H](CC(=O)OC(C)(C)C)c1nnc(C)n1-2 [NCGC00250412-19] | -135
6 | Nc1nc(Cl)nc2c1ncn2[C@@H]1O[C@H](CO)[C@@H](O)[C@@H]1F + Cc1sc2c(c1C)C(c1ccc(Cl)cc1)=N[C@@H](CC(=O)OC(C)(C)C)c1nnc(C)n1-2 [NCGC00250412-19] | -267
7 | CC(N[C@H]1C[C@H]1c1ccccc1)c1ccc2c(c1)OCCO2 (stereo partly drawn) + Cc1sc2c(c1C)C(c1ccc(Cl)cc1)=N[C@@H](CC(=O)OC(C)(C)C)c1nnc(C)n1-2 [NCGC00250412-19] | -66.8
8 | O=C1CN2Cc3c(ccc(Cl)c3Cl)N=C2N1 + Cc1sc2c(c1C)C(c1ccc(Cl)cc1)=N[C@@H](CC(=O)OC(C)(C)C)c1nnc(C)n1-2 [NCGC00250412-19] | -40.1
9 | CC(C)NCC(O)COc1ccc(COCCOC(C)C)cc1 (stereo not drawn) + Cc1sc2c(c1C)C(c1ccc(Cl)cc1)=N[C@@H](CC(=O)OC(C)(C)C)c1nnc(C)n1-2 [NCGC00250412-19] | -77.4
10 | C=C(C)[C@H]1Cc2c(ccc3c2O[C@@H]2COc4cc(OC)c(OC)cc4[C@@H]2C3=O)O1 + Cc1sc2c(c1C)C(c1ccc(Cl)cc1)=N[C@@H](CC(=O)OC(C)(C)C)c1nnc(C)n1-2 [NCGC00250412-19] | -153
11 | CN(C)Cc1c(C(=O)NCCOc2ccc(C(=O)NO)cc2)oc2ccccc12 + Cc1sc2c(c1C)C(c1ccc(Cl)cc1)=N[C@@H](CC(=O)OC(C)(C)C)c1nnc(C)n1-2 [NCGC00250412-19] | -152
12 | COC(=O)C1=CCCN(C)C1 + Cc1sc2c(c1C)C(c1ccc(Cl)cc1)=N[C@@H](CC(=O)OC(C)(C)C)c1nnc(C)n1-2 [NCGC00250412-19] | -172
13 | CC[C@H]1OC(=O)[C@H](C)[C@@H](O[C@H]2C[C@@](C)(OC)[C@@H](O)[C@H](C)O2)[C@H](C)[C@@H](O[C@@H]2O[C@H](C)C[C@H](N(C)C)[C@H]2O)[C@](C)(O)C[C@@H](C)/C(=N\OCOCCOC)[C@H](C)[C@@H](O)[C@]1(C)O + Cc1sc2c(c1C)C(c1ccc(Cl)cc1)=N[C@@H](CC(=O)OC(C)(C)C)c1nnc(C)n1-2 [NCGC00250412-19] | -180
14 | O=C(NCCS(=O)(=O)c1ccc(C(F)(F)F)cn1)c1ccc(Cl)cc1 + Cc1sc2c(c1C)C(c1ccc(Cl)cc1)=N[C@@H](CC(=O)OC(C)(C)C)c1nnc(C)n1-2 [NCGC00250412-19] | 83.6
15 | CC(C)CC(=O)Nc1n[nH]c2c1CN(C(=O)C1CCN(C)CC1)C2(C)C + Cc1sc2c(c1C)C(c1ccc(Cl)cc1)=N[C@@H](CC(=O)OC(C)(C)C)c1nnc(C)n1-2 [NCGC00250412-19] | -619
16 | CC(C)C[C@H](NC(=O)CNC(=O)c1cc(Cl)ccc1Cl)B(O)O + Cc1sc2c(c1C)C(c1ccc(Cl)cc1)=N[C@@H](CC(=O)OC(C)(C)C)c1nnc(C)n1-2 [NCGC00250412-19] | -170
17 | CC[C@H]1CN2CCc3cc(OC)c(OC)cc3[C@@H]2C[C@@H]1C[C@H]1NCCc2cc(OC)c(OC)cc21 + Cc1sc2c(c1C)C(c1ccc(Cl)cc1)=N[C@@H](CC(=O)OC(C)(C)C)c1nnc(C)n1-2 [NCGC00250412-19] | -163
18 | C[C@](Cc1c[nH]c2ccccc12)(NC(=O)OC1[C@H]2C[C@@H]3C[C@@H](C[C@H]1C3)C2)C(=O)NC[C@H](NC(=O)CCC(=O)O)c1ccccc1 (stereo partly drawn) + Cc1sc2c(c1C)C(c1ccc(Cl)cc1)=N[C@@H](CC(=O)OC(C)(C)C)c1nnc(C)n1-2 [NCGC00250412-19] | 28.3
19 | CCn1cc(-c2ccnc3[nH]c(-c4cccc(CN(C)C)c4)cc23)c(-c2ccc(NC(=O)N(C)C)cc2)n1 + Cc1sc2c(c1C)C(c1ccc(Cl)cc1)=N[C@@H](CC(=O)OC(C)(C)C)c1nnc(C)n1-2 [NCGC00250412-19] | -370

Row | Compound | excess over highest single agent
20 | CCOc1ccn(-c2ccc(F)cc2)c(=O)c1C(=O)Nc1ccc(Oc2ccnc(N)c2Cl)c(F)c1 + Cc1sc2c(c1C)C(c1ccc(Cl)cc1)=N[C@@H](CC(=O)OC(C)(C)C)c1nnc(C)n1-2 [NCGC00250412-19] | -79.2
21 | Cc1nc(Nc2n[nH]c3c2CN(C(=O)N[C@H](CN(C)C)c2ccccc2)C3(C)C)c2sccc2n1 + Cc1sc2c(c1C)C(c1ccc(Cl)cc1)=N[C@@H](CC(=O)OC(C)(C)C)c1nnc(C)n1-2 [NCGC00250412-19] | -503
22 | CNC[C@H](O)c1cccc(O)c1 + Cc1sc2c(c1C)C(c1ccc(Cl)cc1)=N[C@@H](CC(=O)OC(C)(C)C)c1nnc(C)n1-2 [NCGC00250412-19] | 65.2
23 | O=S(=O)(NCCNCC=Cc1ccc(Br)cc1)c1cccc2cnccc12 + Cc1sc2c(c1C)C(c1ccc(Cl)cc1)=N[C@@H](CC(=O)OC(C)(C)C)c1nnc(C)n1-2 [NCGC00250412-19] | 29.6
24 | N[C@@H]1CN(c2c(F)cc3c(=O)c(C(=O)O)cn([C@@H]4C[C@@H]4F)c3c2Cl)CC12CC2 + Cc1sc2c(c1C)C(c1ccc(Cl)cc1)=N[C@@H](CC(=O)OC(C)(C)C)c1nnc(C)n1-2 [NCGC00250412-19] | -141
25 | C[C@H](NC(=O)Cc1cc(F)cc(F)c1)C(=O)N[C@@H]1C(=O)N(C)c2ccccc2-c2ccccc21 + Cc1sc2c(c1C)C(c1ccc(Cl)cc1)=N[C@@H](CC(=O)OC(C)(C)C)c1nnc(C)n1-2 [NCGC00250412-19] | -28.3
26 | O=C(O)c1ccc(Nc2ncc3c(n2)-c2ccc(Cl)cc2C(c2c(F)cccc2F)=NC3)cc1 + Cc1sc2c(c1C)C(c1ccc(Cl)cc1)=N[C@@H](CC(=O)OC(C)(C)C)c1nnc(C)n1-2 [NCGC00250412-19] | -157
27 | OCc1ccc(-c2ccc(-c3ccc(CO)s3)o2)s1 + Cc1sc2c(c1C)C(c1ccc(Cl)cc1)=N[C@@H](CC(=O)OC(C)(C)C)c1nnc(C)n1-2 [NCGC00250412-19] | 33.9
28 | O=c1c(-c2ccc(O)cc2)coc2cc(O)cc(O)c12 + Cc1sc2c(c1C)C(c1ccc(Cl)cc1)=N[C@@H](CC(=O)OC(C)(C)C)c1nnc(C)n1-2 [NCGC00250412-19] | -46.5
29 | CSc1cccc(Nc2ncc3cc(-c4c(Cl)cccc4Cl)c(=O)n(C)c3n2)c1 + Cc1sc2c(c1C)C(c1ccc(Cl)cc1)=N[C@@H](CC(=O)OC(C)(C)C)c1nnc(C)n1-2 [NCGC00250412-19] | -159
30 | O=c1ccn(C2OC(CO)C(O)C2F)c(=O)[nH]1 (stereo not drawn) + Cc1sc2c(c1C)C(c1ccc(Cl)cc1)=N[C@@H](CC(=O)OC(C)(C)C)c1nnc(C)n1-2 [NCGC00250412-19] | 46.9
31 | CC1=C(C(=O)Nc2cc3cn[nH]c3cc2F)C(c2ccc(Cl)cc2F)N=C(c2ccnc(Cl)c2)N1 (stereo not drawn) + Cc1sc2c(c1C)C(c1ccc(Cl)cc1)=N[C@@H](CC(=O)OC(C)(C)C)c1nnc(C)n1-2 [NCGC00250412-19] | -142
32 | Cc1nc2cnc3ccc(C#Cc4cccnc4)cc3c2n1-c1ccc(C(C)(C)C#N)cc1 + Cc1sc2c(c1C)C(c1ccc(Cl)cc1)=N[C@@H](CC(=O)OC(C)(C)C)c1nnc(C)n1-2 [NCGC00250412-19] | -222
33 | NC(CO)(CO)CCc1ccc(Sc2cccc(OCc3ccccc3)c2)cc1Cl + Cc1sc2c(c1C)C(c1ccc(Cl)cc1)=N[C@@H](CC(=O)OC(C)(C)C)c1nnc(C)n1-2 [NCGC00250412-19] | -103
34 | COc1cc([C@@H]2c3cc4c(cc3[C@H](O)[C@H]3COC(=O)[C@H]23)OCO4)cc(OC)c1OC + Cc1sc2c(c1C)C(c1ccc(Cl)cc1)=N[C@@H](CC(=O)OC(C)(C)C)c1nnc(C)n1-2 [NCGC00250412-19] | -129
35 | C=CCc1ccc(O)c(-c2ccc(O)c(CC=C)c2)c1 + Cc1sc2c(c1C)C(c1ccc(Cl)cc1)=N[C@@H](CC(=O)OC(C)(C)C)c1nnc(C)n1-2 [NCGC00250412-19] | 29.3
36 | CC(C)C[C@H](NC(=O)[C@@H](O)[C@H](N)Cc1ccccc1)C(=O)O + Cc1sc2c(c1C)C(c1ccc(Cl)cc1)=N[C@@H](CC(=O)OC(C)(C)C)c1nnc(C)n1-2 [NCGC00250412-19] | -74.5
37 | CS(=O)(=O)N(Cc1ccco1)C[C@@H](O)Cn1c2ccccc2c2ccccc21 + Cc1sc2c(c1C)C(c1ccc(Cl)cc1)=N[C@@H](CC(=O)OC(C)(C)C)c1nnc(C)n1-2 [NCGC00250412-19] | -206
38 | COC(=O)[C@H]1[C@H]2C[C@@H]3c4[nH]c5cc(OC)ccc5c4CCN3C[C@H]2C[C@@H](OC(=O)c2cc(OC)c(OC)c(OC)c2)[C@@H]1OC + Cc1sc2c(c1C)C(c1ccc(Cl)cc1)=N[C@@H](CC(=O)OC(C)(C)C)c1nnc(C)n1-2 [NCGC00250412-19] | -138

Look-ups from the results shown:
Entry for O=c1c(-c2ccc(O)cc2)coc2cc(O)cc(O)c12 + Cc1sc2c(c1C)C(c1ccc(Cl)cc1)=N[C@@H](CC(=O)OC(C)(C)C)c1nnc(C)n1-2 [NCGC00250412-19] under excess over highest single agent: -46.5
Entry for CCOc1ccn(-c2ccc(F)cc2)c(=O)c1C(=O)Nc1ccc(Oc2ccnc(N)c2Cl)c(F)c1 + Cc1sc2c(c1C)C(c1ccc(Cl)cc1)=N[C@@H](CC(=O)OC(C)(C)C)c1nnc(C)n1-2 [NCGC00250412-19] under excess over highest single agent: -79.2
